The values that follow come from the supplement of paper PMC11006884.

Chains of the proteins cited; added tags and fusions are not shown. Lines headed by an entry give the natural chain unless they say otherwise; changes in a name come on top.
UniProt O76003: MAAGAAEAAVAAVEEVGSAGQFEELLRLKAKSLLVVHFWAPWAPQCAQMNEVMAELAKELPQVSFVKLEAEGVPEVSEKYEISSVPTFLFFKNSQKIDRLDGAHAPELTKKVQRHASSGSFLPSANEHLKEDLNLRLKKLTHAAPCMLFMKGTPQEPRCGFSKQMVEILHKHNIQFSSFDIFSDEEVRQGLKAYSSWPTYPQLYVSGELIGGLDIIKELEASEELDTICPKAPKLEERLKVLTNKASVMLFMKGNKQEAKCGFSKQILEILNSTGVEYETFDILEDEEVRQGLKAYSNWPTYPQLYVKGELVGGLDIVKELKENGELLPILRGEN
UniProt O75533, whole entry, looked up: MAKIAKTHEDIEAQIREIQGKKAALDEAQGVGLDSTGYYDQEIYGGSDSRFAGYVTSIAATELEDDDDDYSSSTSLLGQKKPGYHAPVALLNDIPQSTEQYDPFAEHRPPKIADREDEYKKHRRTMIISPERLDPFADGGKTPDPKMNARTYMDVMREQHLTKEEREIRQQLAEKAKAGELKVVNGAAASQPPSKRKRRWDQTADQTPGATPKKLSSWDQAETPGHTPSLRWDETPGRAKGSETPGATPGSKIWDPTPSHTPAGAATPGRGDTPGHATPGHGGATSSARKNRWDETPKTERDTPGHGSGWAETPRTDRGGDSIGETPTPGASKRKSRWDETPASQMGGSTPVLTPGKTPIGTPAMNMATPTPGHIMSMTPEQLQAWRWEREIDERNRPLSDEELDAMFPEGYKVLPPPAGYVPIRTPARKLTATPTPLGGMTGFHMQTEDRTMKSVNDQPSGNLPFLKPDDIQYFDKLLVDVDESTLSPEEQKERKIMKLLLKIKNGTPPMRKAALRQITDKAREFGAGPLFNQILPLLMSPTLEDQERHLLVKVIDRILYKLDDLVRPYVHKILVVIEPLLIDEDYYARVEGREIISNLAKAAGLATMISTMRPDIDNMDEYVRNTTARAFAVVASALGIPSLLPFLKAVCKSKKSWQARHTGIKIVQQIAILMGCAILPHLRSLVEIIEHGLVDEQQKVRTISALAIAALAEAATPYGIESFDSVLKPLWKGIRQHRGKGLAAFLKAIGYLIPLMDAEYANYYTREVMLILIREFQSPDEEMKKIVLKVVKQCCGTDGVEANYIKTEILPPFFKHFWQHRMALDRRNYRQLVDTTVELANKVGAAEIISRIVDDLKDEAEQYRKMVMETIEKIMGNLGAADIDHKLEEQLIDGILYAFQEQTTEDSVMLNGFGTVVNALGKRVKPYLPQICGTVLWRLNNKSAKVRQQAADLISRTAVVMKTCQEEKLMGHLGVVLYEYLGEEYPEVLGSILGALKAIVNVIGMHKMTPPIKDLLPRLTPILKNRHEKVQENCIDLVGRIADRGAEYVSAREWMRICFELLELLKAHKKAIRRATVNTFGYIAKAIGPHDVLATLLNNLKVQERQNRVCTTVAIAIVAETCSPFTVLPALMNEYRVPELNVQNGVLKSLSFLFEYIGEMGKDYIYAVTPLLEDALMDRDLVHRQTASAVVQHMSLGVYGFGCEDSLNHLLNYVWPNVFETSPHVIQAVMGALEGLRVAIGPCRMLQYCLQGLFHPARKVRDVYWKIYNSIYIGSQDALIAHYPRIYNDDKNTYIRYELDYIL
UniProt O60826, whole entry: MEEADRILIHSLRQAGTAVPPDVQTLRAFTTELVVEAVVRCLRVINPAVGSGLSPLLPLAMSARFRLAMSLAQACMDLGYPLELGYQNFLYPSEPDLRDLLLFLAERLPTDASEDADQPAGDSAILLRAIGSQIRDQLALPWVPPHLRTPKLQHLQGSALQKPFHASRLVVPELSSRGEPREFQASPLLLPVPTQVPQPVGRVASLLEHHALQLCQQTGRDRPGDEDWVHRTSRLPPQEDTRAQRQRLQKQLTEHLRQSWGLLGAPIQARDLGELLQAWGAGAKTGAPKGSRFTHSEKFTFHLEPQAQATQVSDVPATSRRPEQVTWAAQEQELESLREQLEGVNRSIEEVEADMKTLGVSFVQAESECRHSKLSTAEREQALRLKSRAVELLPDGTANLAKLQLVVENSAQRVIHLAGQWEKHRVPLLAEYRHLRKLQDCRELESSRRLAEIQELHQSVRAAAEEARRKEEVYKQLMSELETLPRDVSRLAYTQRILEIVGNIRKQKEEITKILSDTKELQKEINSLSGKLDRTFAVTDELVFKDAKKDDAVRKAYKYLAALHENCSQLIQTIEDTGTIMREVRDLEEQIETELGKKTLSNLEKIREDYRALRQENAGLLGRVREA
UniProt O43583: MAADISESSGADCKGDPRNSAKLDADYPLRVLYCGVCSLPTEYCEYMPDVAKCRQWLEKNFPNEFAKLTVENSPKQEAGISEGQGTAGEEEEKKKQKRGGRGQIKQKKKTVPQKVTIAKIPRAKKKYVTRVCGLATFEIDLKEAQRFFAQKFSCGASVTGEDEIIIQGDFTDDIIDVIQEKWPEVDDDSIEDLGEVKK
UniProt O43390: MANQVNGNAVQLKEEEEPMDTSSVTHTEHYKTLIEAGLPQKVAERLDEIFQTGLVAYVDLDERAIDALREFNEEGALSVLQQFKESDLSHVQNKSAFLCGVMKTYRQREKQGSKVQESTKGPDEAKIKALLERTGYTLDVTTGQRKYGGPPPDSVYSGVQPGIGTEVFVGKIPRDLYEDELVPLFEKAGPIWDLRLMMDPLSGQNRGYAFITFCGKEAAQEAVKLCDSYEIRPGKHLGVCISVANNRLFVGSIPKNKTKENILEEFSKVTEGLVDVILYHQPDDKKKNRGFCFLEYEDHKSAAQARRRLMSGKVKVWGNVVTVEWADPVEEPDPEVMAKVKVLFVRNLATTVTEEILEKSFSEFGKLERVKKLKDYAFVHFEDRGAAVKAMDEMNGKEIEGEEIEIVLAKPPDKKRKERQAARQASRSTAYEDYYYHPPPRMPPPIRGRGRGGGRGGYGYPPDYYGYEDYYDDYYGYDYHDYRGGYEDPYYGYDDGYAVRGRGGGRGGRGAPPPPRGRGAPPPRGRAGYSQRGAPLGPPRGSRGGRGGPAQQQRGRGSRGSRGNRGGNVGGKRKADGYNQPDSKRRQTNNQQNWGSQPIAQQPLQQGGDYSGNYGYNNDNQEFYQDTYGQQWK
UniProt O60271: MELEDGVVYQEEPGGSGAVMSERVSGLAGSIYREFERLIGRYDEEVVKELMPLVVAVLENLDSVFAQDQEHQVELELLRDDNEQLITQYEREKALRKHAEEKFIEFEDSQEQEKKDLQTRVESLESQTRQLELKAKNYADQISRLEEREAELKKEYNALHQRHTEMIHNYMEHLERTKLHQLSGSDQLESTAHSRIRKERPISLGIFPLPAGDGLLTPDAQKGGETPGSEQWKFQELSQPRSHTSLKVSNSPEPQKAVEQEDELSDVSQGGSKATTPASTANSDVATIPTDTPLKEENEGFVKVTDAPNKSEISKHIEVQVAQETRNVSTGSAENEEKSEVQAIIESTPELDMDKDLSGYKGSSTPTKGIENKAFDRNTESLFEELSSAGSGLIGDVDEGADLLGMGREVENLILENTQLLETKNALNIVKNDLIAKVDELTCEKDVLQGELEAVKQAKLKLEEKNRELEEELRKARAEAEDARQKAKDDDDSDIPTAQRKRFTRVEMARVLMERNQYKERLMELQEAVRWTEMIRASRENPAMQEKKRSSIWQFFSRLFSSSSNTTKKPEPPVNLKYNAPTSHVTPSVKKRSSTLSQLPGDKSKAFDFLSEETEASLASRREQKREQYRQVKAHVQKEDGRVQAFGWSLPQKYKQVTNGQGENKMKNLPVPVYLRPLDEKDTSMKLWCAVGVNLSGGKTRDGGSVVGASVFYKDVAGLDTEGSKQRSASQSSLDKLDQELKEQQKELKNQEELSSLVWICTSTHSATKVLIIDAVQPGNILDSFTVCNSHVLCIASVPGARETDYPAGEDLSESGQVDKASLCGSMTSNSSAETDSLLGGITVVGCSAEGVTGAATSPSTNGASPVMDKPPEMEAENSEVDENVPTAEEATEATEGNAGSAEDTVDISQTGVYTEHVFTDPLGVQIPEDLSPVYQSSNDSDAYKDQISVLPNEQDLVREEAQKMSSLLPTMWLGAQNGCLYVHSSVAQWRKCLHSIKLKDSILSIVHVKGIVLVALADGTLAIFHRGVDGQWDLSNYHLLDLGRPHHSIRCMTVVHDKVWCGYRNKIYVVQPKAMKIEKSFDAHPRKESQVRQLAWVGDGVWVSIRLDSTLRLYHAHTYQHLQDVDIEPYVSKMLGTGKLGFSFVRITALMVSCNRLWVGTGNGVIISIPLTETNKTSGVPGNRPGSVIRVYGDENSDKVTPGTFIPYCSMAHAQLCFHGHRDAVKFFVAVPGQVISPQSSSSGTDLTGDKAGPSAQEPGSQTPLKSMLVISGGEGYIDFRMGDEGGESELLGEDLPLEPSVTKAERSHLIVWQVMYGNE
UniProt O75663: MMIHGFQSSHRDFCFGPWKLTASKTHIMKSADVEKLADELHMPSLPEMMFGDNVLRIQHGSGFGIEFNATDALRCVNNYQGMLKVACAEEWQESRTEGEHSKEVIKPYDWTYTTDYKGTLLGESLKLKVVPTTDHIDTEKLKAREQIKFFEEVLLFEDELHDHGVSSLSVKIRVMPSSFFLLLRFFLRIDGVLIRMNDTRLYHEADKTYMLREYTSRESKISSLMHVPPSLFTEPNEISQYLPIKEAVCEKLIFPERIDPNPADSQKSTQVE
UniProt O75683: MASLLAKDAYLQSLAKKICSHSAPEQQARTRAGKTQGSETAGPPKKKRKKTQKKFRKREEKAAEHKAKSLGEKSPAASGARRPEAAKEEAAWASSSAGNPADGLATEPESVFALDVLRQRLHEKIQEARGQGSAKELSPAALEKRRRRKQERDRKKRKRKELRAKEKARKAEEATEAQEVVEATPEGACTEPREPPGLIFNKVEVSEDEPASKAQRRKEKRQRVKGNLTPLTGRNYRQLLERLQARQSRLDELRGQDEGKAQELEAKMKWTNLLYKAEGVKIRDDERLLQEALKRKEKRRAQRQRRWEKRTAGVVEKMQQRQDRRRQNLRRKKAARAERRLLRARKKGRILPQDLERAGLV
UniProt O75427: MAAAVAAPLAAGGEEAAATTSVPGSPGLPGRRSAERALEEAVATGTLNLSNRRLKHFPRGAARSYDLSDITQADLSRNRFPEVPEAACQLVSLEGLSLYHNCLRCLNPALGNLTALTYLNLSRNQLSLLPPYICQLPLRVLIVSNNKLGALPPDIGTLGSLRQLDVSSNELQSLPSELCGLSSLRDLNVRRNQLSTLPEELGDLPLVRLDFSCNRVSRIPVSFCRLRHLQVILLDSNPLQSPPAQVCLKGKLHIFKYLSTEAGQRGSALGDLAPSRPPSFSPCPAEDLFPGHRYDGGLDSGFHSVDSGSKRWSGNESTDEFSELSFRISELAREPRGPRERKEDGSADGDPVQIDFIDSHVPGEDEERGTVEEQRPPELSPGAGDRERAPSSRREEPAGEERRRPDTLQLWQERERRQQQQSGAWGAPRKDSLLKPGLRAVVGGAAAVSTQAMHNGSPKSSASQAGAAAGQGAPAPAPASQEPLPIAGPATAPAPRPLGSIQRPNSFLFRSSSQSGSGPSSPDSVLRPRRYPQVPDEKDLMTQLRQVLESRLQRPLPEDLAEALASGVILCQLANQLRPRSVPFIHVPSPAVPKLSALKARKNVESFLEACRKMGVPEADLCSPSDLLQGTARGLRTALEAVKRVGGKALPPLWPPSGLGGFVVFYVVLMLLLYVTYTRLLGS
UniProt O43264: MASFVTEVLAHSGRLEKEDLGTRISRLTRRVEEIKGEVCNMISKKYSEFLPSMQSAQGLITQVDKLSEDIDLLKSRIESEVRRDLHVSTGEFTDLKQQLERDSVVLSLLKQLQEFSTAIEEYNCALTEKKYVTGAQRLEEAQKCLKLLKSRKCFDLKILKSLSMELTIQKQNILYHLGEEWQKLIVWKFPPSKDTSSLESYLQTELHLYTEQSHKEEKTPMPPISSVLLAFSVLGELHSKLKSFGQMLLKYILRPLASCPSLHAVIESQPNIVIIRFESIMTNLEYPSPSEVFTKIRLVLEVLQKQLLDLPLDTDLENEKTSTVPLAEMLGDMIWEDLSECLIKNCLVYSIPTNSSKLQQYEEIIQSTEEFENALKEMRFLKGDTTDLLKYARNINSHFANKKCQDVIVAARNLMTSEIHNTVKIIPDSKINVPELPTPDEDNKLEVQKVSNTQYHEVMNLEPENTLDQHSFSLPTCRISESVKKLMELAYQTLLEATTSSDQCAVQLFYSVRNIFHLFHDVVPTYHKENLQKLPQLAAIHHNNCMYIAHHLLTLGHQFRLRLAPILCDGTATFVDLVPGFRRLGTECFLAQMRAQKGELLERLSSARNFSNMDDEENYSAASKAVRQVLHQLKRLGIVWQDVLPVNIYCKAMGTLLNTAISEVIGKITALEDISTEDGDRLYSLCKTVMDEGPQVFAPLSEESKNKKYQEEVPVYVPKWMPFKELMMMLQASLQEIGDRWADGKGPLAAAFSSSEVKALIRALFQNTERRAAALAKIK

Only a part is listed here, and it is no random draw.

Compound in this assay: COC(=O)C#Cc1ccccc1 [methyl 3-phenylpropiolate]
Briefly: log2 ratio of iodoacetamide-alkyne labeling of the cysteine site, DMSO over compound (competition); higher = stronger covalent engagement of the cysteine by the compound, active = 1 or more. The note with it: 500 µM; treatment time 1 h; system: HEK293T cell lysate. In short, it runs like this: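 HEK293T lysate (2 mg/mL) was treated with DMSO or electrophile (500 µM, 1 h, ambient temperature), then iodoacetamide alkyne (1 h), clicked to sCIP-TMT reagents, pooled, trypsin-digested overnight at 37 °C, streptavidin-enriched and acid-eluted. Peptides were run on Orbitrap Eclipse LC-MS/MS with FAIMS and quantified in FragPipe. The log2 competition ratio per cysteine is mean control-channel over mean compound-channel reporter intensity. Duplicate channels and three replicates were used, and cysteines quantified in only one replicate were excluded.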
For SRGAP2 C820 (UniProt O75044), the “log2 ratio of iodoacetamide-alkyne labeling” value (shortened to “log2 ratio”) was inactive: 0.721. Turning to KATNA1 C491 (UniProt O75449), the “log2 ratio” value is inactive: 0.112. Take GLRX3 C46 (UniProt O76003): the “log2 ratio” value was inactive: -0.0384. The value for UniProt O60664_C341 was inactive: 0.384; that for UniProt O75170_C762 was inactive: 0.241; that for NCOR1 C2322 (UniProt O75376) was inactive: 0.378. Take IDH1 C379 (UniProt O75874): the “log2 ratio” value was inactive: 0.0509. Consider UniProt O60282_C393, for which the “log2 ratio” value is inactive: 0.179. For the target DCTN3 C173 (UniProt O75935), the “log2 ratio” value is inactive: -0.0748. As for UniProt O43598_C26, the “log2 ratio” value was inactive: 0.038. On to PLOD3 C691 (UniProt O60568), for which the “log2 ratio” value is inactive: 0.786. Take MED7 C223 (UniProt O43513): the “log2 ratio” value was inactive: 0.124.

For the target CS C211 (UniProt O75390), the “log2 ratio” value is inactive: 0.125. As for ZC3H11A C636 (UniProt O75152), the “log2 ratio” value was inactive: 0.591. With SMARCA5 C259 (UniProt O60264), the “log2 ratio” value was inactive: 0.509. SF3B1 C1250 (UniProt O75533): the “log2 ratio” value was inactive: 0.59. Regarding SORBS3 C521 (UniProt O60504), the “log2 ratio” value was inactive: 0.124.

On to CCDC22 C369 (UniProt O60826), for which the “log2 ratio” value was inactive: 0.818.

On to DENR C13 (UniProt O43583), for which the “log2 ratio” value was inactive: 0.235. The value for DCTN3 C140 (UniProt O75935) was inactive: 0.415; that for HNRNPR C292 (UniProt O43390) was inactive: 0.0673. Regarding CPNE3 C5 (UniProt O75131), the “log2 ratio” value was inactive: 0.13. With RNF40 C69 (UniProt O75150), the “log2 ratio” value was inactive: 0.0776. For the target SPAG9 C443 (UniProt O60271), the “log2 ratio” value is inactive: 0.256. For the target MYO1B C310 (UniProt O43795), the “log2 ratio” value is inactive: 0.36. Consider LYPLA1 C169 (UniProt O75608), for which the “log2 ratio” value was inactive: 0.127.

Regarding BUB1 C339 (UniProt O43683), the “log2 ratio” value is inactive: 0.245. With TIPRL C87 (UniProt O75663), the “log2 ratio” value was active: 1.32.

DKC1 C74 (UniProt O60832): the “log2 ratio” value is inactive: 0.427. As to ERAL1 C278 (UniProt O75616), the “log2 ratio” value was inactive: 0.471. Regarding PRC1 C132 (UniProt O43663), the “log2 ratio” value was inactive: -0.0971. As for SURF6 C19 (UniProt O75683), the “log2 ratio” value was inactive: 0.57. Consider LRCH4 C134 (UniProt O75427), for which the “log2 ratio” value was inactive: 0.323. FLNB C455 (UniProt O75369): the “log2 ratio” value was active: 1.24.

As to ZW10 C124 (UniProt O43264), the “log2 ratio” value was inactive: 0.21. On to OPA1 C786 (UniProt O60313), for which the “log2 ratio” value is inactive: 0.281. The value for PRKRA C106 (UniProt O75569) was active: 1.07.
